From US20190328706A1, “COMPOSITIONS COMPRISING AN INTEGRIN INHIBITOR AND AGENTS WHICH INTERACT WITH A CHEMOKINE AND METHODS OF USE THEREOF” (Saint Louis University, priority 2016, published 2019)
For some of these results: At least one compound was matched to its structure with a doubt left. Some results were stated once for a whole list of compounds, not compound by compound.

Experiments:
[1] = system: human G2 acute lymphoblastic leukemia (ALL) cells; assay: Flow cytometry cell-based assay: inhibition of soluble VCAM-1 binding to G2 ALL cells
Protocol: (§1) Compounds were tested for their ability to inhibit the binding of soluble VCAM-1 to human G2 acute lymphoblastic leukemia (ALL) cells. Briefly, G2 ALL cells are pre-incubated with increasing concentrations (0.001 to 1000 nM) of compounds for 30 minutes. Soluble VCAM/Fc chimera protein (R&D systems) is then added to the mixture and the cells incubated for an additional 30 minutes. Afterwards, cells are washed and VCAM-1 is detected using PE-conjugated secondary mAbs. In each experiment, an aliquot of cells will be stained with isotype control mAbs to serve as a negative control. The percentage of VCAM-1 binding cells was then determined by flow cytometry.
as §1, with “(ALL) cells or 5TGMI myeloma” for “(ALL)”, “ALL or 5TGMI” for “ALL”

5TGMI myeloma cells = assay: Flow cytometry cell-based assay: inhibition of soluble VCAM-1 binding to 5TGMI myeloma cells
Protocol: as §1, with “(ALL) cells or 5TGMI myeloma” for “(ALL)”, “ALL or 5TGMI” for “ALL”

murine HSPCs = assay: Colony forming cell (CFC/CFU) assay of mobilized peripheral blood, DBA/2 mice; format: in vivo; settings: DBA2/J mice, FIG. 15/29
Protocol: The VLA-4 inhibitors Examples 1220, 1221, 1224, 1610, and 1611 were prepared in DMSO/10 mM sodium bicarbonate pH 8/saline (1%/49.5%/49.5%) and injected subcutaneously (SC) at a dose of 3 mg/kg.
Peripheral blood (PB) was drawn from the facial vein without anaesthesia into K/EDTA anti-coagulated tubes (Sarstedt AG & Co, Numbrecht, Germany). Red blood cells were removed from […] aliquots of blood using hypotonic lysis (Ammonium-Chloride-Potassium, ACK buffer, 5-10 min at RT) and samples were mixed with 2.5 mL methylcellulose media supplemented with a cocktail of recombinant cytokines (MethoCult 3434; Stem Cell Technologies, Vancouver, BC, Canada). Cultures were plated in duplicate in 35 mm dishes and placed in a humidified chamber with 5% CO2 at 37° C. After 7 d of culture, colonies containing at least 50 cells were counted using an inverted microscope in a blinded fashion.
Recombinant human CXCL2 (Groβt; R&D systems) was reconstituted in sterile Ca^+2/Mg^+2-free phosphate buffered saline (PBS) and injected subcutaneously (SC) at a dose of 2.5 mg/kg. […]
Peripheral blood (PB) was drawn from the facial vein without anaesthesia into K/EDTA anti-coagulated tubes (Sarstedt AG & Co, Nimbrecht, Germany). […] After 7 d of culture, colonies containing at least 50 cells were counted using an inverted microscope in a blinded fashion. […]

LSK cells = assay: Flow cytometric enumeration of mobilized LSK cells, DBA/2J mice; format: in vivo; settings: DBA2/J mice, FIG. 15/29
Protocol: Peripheral blood (PB) was drawn from the facial vein without anaesthesia into K/EDTA anti-coagulated tubes (Sarstedt AG & Co, Nimbrecht, Germany). Cell counts (WBC) were determined using an automatic hemocytometer (Hemavet 950, Drew Scientific, Dallas, Tex.). Red blood cells were removed from 25 μL aliquots of blood using hypotonic lysis (Ammonium-Chloride-Potassium, ACK buffer, 5-10 min at RT). Samples were resuspended in staining buffer (PBS supplemented with 0.5% bovine serum albumin and 2 mM EDTA) and incubated for 30 min at 4° C. with pre-titrated saturating dilutions of the following fluorochrome-labeled monoclonal antibodies (BD Biosciences, San Jose, Calif.; clone designated in parenthesis): Sca1-PE (D7), CD117-BV421 (ACK2), lineage-APC (17A2, RB6-8C5, RA3-6B2, Ter-119, M/170) and CD45-A700 (30-F11). Dead cells were excluded from these assays by staining with 2 μg/mL 7-amino-actinomycin D (Molecular Probes, Eugene, Oreg.) for 5 min prior to analysis. Appropriate isotype-matched negative controls were used to assess background fluorescence intensity. Samples were analyzed on a Beckman Coulter Gallios flow cytometer and data were analyzed using FlowJo software (TreeStar, Ashland, Oreg.). Absolute numbers of immunophenotypically defined populations (e.g. LSK) were calculated by identifying CD45 positive cells as WBC from the corresponding cell count analysis. […]

In the case of `CCOCc1cc(OC)c(-c2ccc(C[C@H](NC(=O)[C@]3(C)CCCN3S(=O)(=O)c3cc(Cl)cc(Cl)c3)C(=O)O)cc2)c(OC)c1` [Compound 1608, (S)-2-((S)-1-((3,5-dichlorophenyl)sulfonyl)-2-methylpyrrolidine-2-carboxamido)-3-(4′-(ethoxymethyl)-2′,6′-dimethoxy-[1,1′-biphenyl]-4-yl)propanoic acid], the “inhibition of sVCAM-1 binding compared with Firategrast (words)” value ([1]; FIG. 5, 8, 9, 12, listed as compound 1608) was “significantly more potent inhibitors of VCAM binding than Firategrast” and the “inhibition of VCAM binding in 5TGMI cells compared with Firategrast / BIO5192 (words)” value (5TGMI myeloma cells; FIG. 12) was “significantly more potent inhibitors of VCAM binding than Firategrast”.

`CCOCc1cc(OC)c(-c2ccc(C[C@H](NC(=O)[C@]3(C)CCCN3S(=O)(=O)c3ccccc3)C(=O)O)cc2)c(OC)c1` [Compound 1609, (S)-3-(4′-(ethoxymethyl)-2′,6′-dimethoxy-[1,1′-biphenyl]-4-yl)-2-((S)-2-methyl-1-(phenylsulfonyl)pyrrolidine-2-carboxamido)propanoic acid] was tested, and the “inhibition of sVCAM-1 binding compared with Firategrast (words)” value ([1]; FIG. 5, 8, 9, 12, listed as compound 1609) was “significantly more potent inhibitors of VCAM binding than Firategrast” and the “inhibition of VCAM binding in 5TGMI cells compared with Firategrast / BIO5192 (words)” value (5TGMI myeloma cells; FIG. 12) was “significantly more potent inhibitors of VCAM binding than Firategrast”.

In the case of `CCOCc1cc(OC)c(-c2ccc(C[C@H](NC(=O)[C@@H]3CCCN3S(=O)(=O)c3cc(Cl)cc(Cl)c3)C(=O)O)cc2)c(OC)c1` [Compound 1611, (S)-2-((S)-1-((3,5-dichlorophenyl)sulfonyl)pyrrolidine-2-carboxamido)-3-(4′-(ethoxymethyl)-2′,6′-dimethoxy-[1,1′-biphenyl]-4-yl)propanoic acid], the “inhibition of sVCAM-1 binding compared with Firategrast (words)” value ([1]; FIG. 5, 8, 9, 12, listed as compound 1611) was “significantly more potent inhibitors of VCAM binding than Firategrast” and the “inhibition of VCAM binding in 5TGMI cells compared with Firategrast / BIO5192 (words)” value (5TGMI myeloma cells; FIG. 12, listed as compound 1611) was “significantly more potent inhibitors of VCAM binding than Firategrast”.

`CCOCc1cc(OC)c(-c2ccc(C[C@H](NC(=O)c3c(F)cccc3F)C(=O)O)cc2)c(OC)c1` [Firategrast, reference compound] was tested, and the “CFU-C mobilization, VLA4 blockade combined with CXCR2 stimulation” value (murine HSPCs) was “mobilized” and the “LSK mobilization, VLA4 blockade combined with CXCR2 stimulation” value (LSK cells) was “mobilized”.

`CCOCc1cc(OC)c(-c2ccc(C[C@H](NC(=O)[C@@H]3CCCN3S(=O)(=O)c3ccccc3)C(=O)O)cc2)c(OC)c1` [Compound 1610, (S)-3-(4′-(ethoxymethyl)-2′,6′-dimethoxy-[1,1′-biphenyl]-4-yl)-2-((S)-1-(phenylsulfonyl)pyrrolidine-2-carboxamido)propanoic acid] was tested, and the “inhibition of sVCAM-1 binding compared with Firategrast (words)” value ([1]; FIG. 5, 8, 9, 12, listed as compound 1610) was “significantly more potent inhibitors of VCAM binding than Firategrast” and the “inhibition of VCAM binding in 5TGMI cells compared with Firategrast / BIO5192 (words)” value (5TGMI myeloma cells; FIG. 12, listed as compound 1610) was “significantly more potent inhibitors of VCAM binding than Firategrast”.
